# PubChem BioAssay AID1259308, NCATS | 2017
# Purpose: 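Candidate targets for better recombinant protein yield in mammalian cells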 (primary screen)
# Cells: human HEK293 embryonic kidney cells stably expressing firefly luciferase (HEK-CMV-Luc2-Hygro)
# Reagent: single siRNA against human genes, 0.8 pmol siRNA per well
# Duration: 72 h
# Measurement: 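Reporter luminescence and viable-cell signal on separate replicate plates, given as percent of non-targeting control and median/MAD z-scores, plus per-cell luciferase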
# Reading the numbers: total luciferase, z-score and total luciferase, % of control: higher = more reporter protein produced; luciferase per cell, z-score: higher = more reporter output per viable cell; viable cells, % of control: higher = more viable cells
# Active means: 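Active when the median/MAD z-score for overall luciferase is greater than 3; a gene was taken forward for validation with new siRNAs if at least two of its three siRNAs passed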
# Meaning of the calls: active = raised luciferase; inactive = no rise
# The whole screen tested about 59,000 reagents; shown is a part drawn at random. In the full data, about 1,510 (2.6%) got an active call. 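Calls use total luciferase alone and ignore viability, so some active siRNAs may act by altering cell number.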 The numbers tell different reagents against one gene apart.
Gene,reagent no.,"total luciferase, z-score","total luciferase, % of control","luciferase per cell, z-score","viable cells, % of control",activity call
TSGA10IP,1,2.05,123,1.44,93.9,inactive
TSGA10IP,2,0.711,96,0.964,83.3,inactive
TSGA10IP,3,2,122,2.78,65.4,inactive
SLMAP,1,1.84,119,0.999,102,inactive
SLMAP,2,2.19,126,1.72,89.1,inactive
SLMAP,3,-0.546,71,-0.303,86,inactive
TSSK2,1,0.951,101,0.725,93,inactive
TSSK2,2,0.945,101,0.501,98.6,inactive
TSSK2,3,-0.151,78.9,0.731,72.7,inactive
EEF1A2,1,1.63,114,1.08,96.2,inactive
EEF1A2,2,-0.592,70.1,-0.886,98.9,inactive
EEF1A2,3,3.43,150,2.72,82,active
FAM53C,1,-0.931,63.4,-1.86,115,inactive
FAM53C,2,1.87,119,0.749,109,inactive
FAM53C,3,2.31,128,1.57,94.6,inactive
NR1I2,1,-0.497,72,0.221,75.9,inactive
NR1I2,2,0.793,97.7,0.54,94.7,inactive
NR1I2,3,-1.18,58.5,-1.07,86.7,inactive
SP4,1,0.47,91.2,0.0929,99.5,inactive
SP4,2,1.01,102,0.553,98.6,inactive
SP4,3,1.15,105,0.873,93,inactive
PRPF40A,1,-0.948,63,0.358,64.1,inactive
PRPF40A,2,-0.291,76.1,0.516,74.2,inactive
PRPF40A,3,0.0582,83,0.803,75.1,inactive
ZNHIT2,1,-0.311,75.7,0.18,80.7,inactive
ZNHIT2,2,0.22,86.3,-0.147,100,inactive
ZNHIT2,3,-0.546,71,-0.0444,80.3,inactive
GFRA2,1,0.255,87,0.954,75.6,inactive
GFRA2,2,-0.951,63,-1.31,99.2,inactive
GFRA2,3,0.995,102,0.886,90,inactive
RORA,1,1.99,121,1.15,100,inactive
RORA,2,-0.943,63.1,-1.72,111,inactive
RORA,3,-0.454,72.9,-0.277,87.6,inactive
BICC1,1,-0.19,78.1,0.424,78.1,inactive
BICC1,2,1.28,107,0.338,110,inactive
BICC1,3,-1.26,56.8,-0.5,72.4,inactive
GABRA2,1,0.491,91.7,-0.0738,104,inactive
GABRA2,2,-0.786,66.3,-0.269,79.5,inactive
GABRA2,3,-0.782,66.3,-0.828,92.2,inactive
MLIP,1,-0.198,78,-0.743,106,inactive
MLIP,2,-0.0123,81.6,-0.00862,91.4,inactive
MLIP,3,-0.809,65.8,-1.04,96.7,inactive
ASPA,1,-0.175,78.4,-0.764,107,inactive
ASPA,2,-1.06,60.8,-1.3,95.5,inactive
ASPA,3,-0.369,74.6,-0.265,89.3,inactive
ERRFI1,1,3.08,143,2.15,90.9,active
ERRFI1,2,-0.422,73.5,-0.593,96,inactive
ERRFI1,3,-1.03,61.3,-1.08,91.1,inactive
NLGN4Y,1,-0.161,78.7,0.216,83.1,inactive
NLGN4Y,2,-1.19,58.1,-1.37,93.2,inactive
NLGN4Y,3,1.5,112,1.64,81,inactive
TMEM26,1,-0.246,77,0.68,71.9,inactive
TMEM26,2,-1.68,48.4,-0.46,61.1,inactive
TMEM26,3,0.0549,83,0.939,72.4,inactive
DIPK2B,1,-0.828,65.4,-0.233,77.7,inactive
DIPK2B,2,1.3,108,1.26,86.3,inactive
DIPK2B,3,-0.223,77.5,-0.454,97.5,inactive
DIPK2B,4,-0.613,69.7,-1,101,inactive
DIPK2B,5,-1.97,42.7,-1.12,64,inactive
DIPK2B,6,0.569,93.2,0.589,89.2,inactive
